These results are taken from PubChem BioAssay AID2685 (National Center for Advancing Translational Sciences (NCATS), 2010).

The list shows a part of the results. Further columns of the screen follow, without active or inactive calls. The list favours compounds with an active or inconclusive main result. Potencies come from curve fits of mixed quality, noted in brackets.

A short description of this assay: qHTS Assay for Lipid Storage Modulators in Drosophila S3 Cells.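 As to cell number change: cells counted by Cell Tracker Red CMTPX staining in the red channel.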 The note with it: BODIPY lipid droplet fluorescence, 18-24 h; for cell number change: measured here: cell count max response, cells fed with added oleic acid. An outline of the steps:
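Laser-scanning cytometry quantifies lipid droplet accumulation (500–530 nm total intensity; droplet/cell object ratio) in oleic acid-fed (400 uM added) Drosophila S3 cells treated with a concentration series. 20 uM Triacsin C defined 100% inhibition.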

The mark [1] stands for this setting: measured here: cell number channel AC50, cells fed with added oleic acid.
The mark [2] stands for this setting: measured here: lipid fluorescence (Fed channel) AC50, cells fed with added oleic acid.

In the case of `Cc1nc(NCCc2ccccc2)sc1C(=O)O`, the cell number change was -19%. By AC50 is commonly meant the midpoint of the concentration-response curve, whichever way the signal moves. Read a low AC50 as activity at low concentration. With `CCOc1cc(-c2nn3cnnc3s2)cc(OCC)c1OCC`, the AC50 under setting [1] is 6.51 µM [rising, single point] and the AC50 under setting [2] is 0.00461 µM [falling, full curve, poor fit]. Regarding `COc1cccc(C2=CC(c3cccc(OC)c3OC)n3nnnc3N2)c1` (configuration not stated), the AC50 under setting [2] is 0.58 µM [rising, full curve, poor fit].

As to `O=C(c1ccccc1Br)N1CCN(c2ccc([N+](=O)[O-])c(N3CCOCC3)c2)CC1`, the cell number change is -14.3%. The AC50 under setting [1] was 1.3 µM [rising, full curve]. `CN(C)c1ccc(N2C(=O)CSC2=S)cc1`: the cell number change was -9.99%. The AC50 under setting [2] is 0.146 µM [falling, full curve]. For `Cc1cc(-c2ccccc2)n(-c2ccccc2)n1`, the cell number change stood at 6.35%. Besides, the AC50 under setting [2] was 0.58 µM [rising, single point]. With `COc1cc(CNCc2ccc(OC)c(OC)c2OC)cc(OC)c1`, the cell number change is 13.8%. As to `CNC(=O)c1ccsc1NC(=O)C1CCN(S(=O)(=O)c2ccc(Cl)s2)CC1`, the cell number change was found to be 65.1%. For the same compound, the AC50 under setting [1] was 13 µM [rising, partial curve, poor fit]. With `Cc1ccc(OCCn2c(=S)[nH]c3ccccc32)c(C(C)C)c1`, the cell number change was -53%. Moreover, the AC50 under setting [1] is 8.2 µM [falling, partial curve]. For the compound `CC(=O)Nc1cccc(OC(=O)COc2ccc(Br)cc2)c1`, the cell number change stood at 54.9%. Moreover, the AC50 under setting [1] is 0.92 µM [rising, full curve]. Further, the AC50 under setting [2] was 29.1 µM [rising, single point].

Regarding `O=C(c1cncc(Br)c1)N1CCN(S(=O)(=O)c2ccc(Cl)cc2)CC1`, the cell number change came out at 23.7%. Same read-out and setting: as for `Cc1c(N=C2N=C(NC(=O)c3ccc(F)cc3)c3ccccc32)c(=O)n(-c2ccccc2)n1C`, the figure is 2.15%.

As for `Fc1ccc(-c2csc3ncnc(N4CCN(Cc5ccccc5)CC4)c23)cc1`, the cell number change is 25.2%. In addition, the AC50 under setting [1] is 2.06 µM [rising, full curve, poor fit]. Moreover, under setting [2], the AC50 was 29.1 µM [rising, single point]. Consider `O=C(NC1CCSc2ccccc21)c1cc([N+](=O)[O-])ccc1N1CCOCC1` (configuration not stated), for which, under setting [1], the AC50 is 6.51 µM [rising, single point]. Take `Cc1ccccc1N1CCN(C2CCCN(C(=O)CCN3CCCCC3=O)C2)CC1` (configuration not stated): the cell number change was 5.81%. Also, the AC50 under setting [2] is 29.1 µM [rising, single point].

In the case of `Cc1cc(C)c(NC(=S)NCC2CCN(C(C)c3ccccc3)C2)c(C)c1` (configuration not stated), the cell number change was -58.1%. Besides, the AC50 under setting [1] is 16.4 µM [falling, partial curve, poor fit]. The AC50 under setting [2] is 29.1 µM [falling, single point].

As to `C=CCSC1=NN2CCS(=O)(=O)N=C2S1`, the cell number change is 71.9%. Consider `N#C/C(=C/c1ccc([N+](=O)[O-])cc1)C(=O)Nc1ccccc1O`, for which the cell number change is -5.79%. The AC50 under setting [1] was 6.51 µM [rising, single point]. The AC50 under setting [2] was 32.6 µM [falling, single point]. In the case of `OC(COc1ccccc1)CN1CCN(Cc2ccc3c(c2)OCO3)CC1` (configuration not stated), the cell number change is -0.919%. Besides, the AC50 under setting [2] was 0.184 µM [falling, partial curve, poor fit].

For `CC1CCCC(NC(=O)COC(=O)c2cccnc2Cl)C1C` (configuration not stated), the cell number change is -44.2%. Besides, the AC50 under setting [1] was 29.1 µM [falling, single point]. In addition, under setting [2], the AC50 is 20.6 µM [falling, single point]. In the case of `O=C(CN1C(=O)C2CCCCC2C1=O)Nc1cccc([N+](=O)[O-])c1` (configuration not stated), the cell number change is -28.1%. Under setting [1], the AC50 was 2.91 µM [falling, full curve, poor fit]. As to `Cc1ccc(-c2c(C)sc3nc[nH]c(=O)c23)cc1C`, the cell number change was -48.1%. The AC50 under setting [1] is 23.1 µM [falling, partial curve, poor fit]. Turning to `COc1ccc(CCNC(=O)c2ccc(S(=O)(=O)N(C)c3ccccc3)cc2)cc1OC`, the cell number change stood at 2.17%. With `CN1CCC(N(C)S(=O)(=O)c2ccc(NC(=O)Cc3ccc(F)cc3)cc2)CC1`, the cell number change was -21.9%. The AC50 under setting [2] was 29.1 µM [rising, single point]. Regarding `Cc1cc(/C=C2\SC(=S)NC2=O)c(C)[nH]1`, the AC50 under setting [1] was 0.82 µM [falling, partial curve] and the AC50 under setting [2] was 0.58 µM [falling, partial curve].

For the compound `CN(CC(=O)NCc1cccnc1)S(=O)(=O)c1ccc(F)cc1`, the cell number change was determined as 7.66%. Under setting [2], the AC50 is 16.4 µM [rising, partial curve]. For `COc1ccc(-c2ccc(C#N)c(SCC(=O)Nc3sc4c(c3C#N)CCC4)n2)cc1OC`, the AC50 under setting [2] was 0.461 µM [rising, partial curve, poor fit].

As for `COc1cc(OC)cc(C(=O)NCCC(c2ccccc2)c2ccccc2)c1`, the cell number change was 309%. Besides, under setting [1], the AC50 was 20.6 µM [rising, single point]. The AC50 under setting [2] was 29.1 µM [rising, single point]. Take `CCN(CC)S(=O)(=O)c1ccc(Cl)c(NC(=O)CCCCl)c1`: the cell number change was 11.8%. Consider `CC(=O)Nc1nc(S(=O)(=O)c2ccc(C)cc2)c(Cl)s1`, for which the AC50 under setting [2] was 6.51 µM [falling, single point].

For the compound `COc1ccc(C(=O)Nn2cnc3ccccc3c2=O)c(OC)c1`, the cell number change came to 29.6%. The AC50 under setting [1] is 4.61 µM [rising, full curve, poor fit]. Besides, under setting [2], the AC50 is 5.8 µM [rising, full curve]. Consider `Cc1nc2ccc([N+](=O)[O-])cc2c(=O)n1Cc1ccc(Cl)cc1`, for which the cell number change is -7.25%. Besides, the AC50 under setting [2] was 29.1 µM [falling, single point]. Regarding `COc1ccc(CCn2c(-c3ccccc3)nc3c(c(=O)c4ccccc4n3C)c2=O)cc1`, the cell number change came to 20.9%. Under setting [2], the AC50 is 7.31 µM [rising, full curve, poor fit]. As for `Cn1c(CN2CCN(C(=O)c3ccccc3)CC2)nc2cc([N+](=O)[O-])ccc21`, under setting [2], the AC50 was 6.51 µM [rising, single point]. `O=C1CCC(=O)N1c1ccccc1OS(=O)(=O)c1ccccc1`: the cell number change turned out to be 5.87%. Besides, the AC50 under setting [2] was 29.1 µM [rising, single point]. On to `O=C(Nc1cccc(Cl)c1)c1cnc[nH]1`, for which the cell number change amounted to 12.3%. Moreover, the AC50 under setting [2] was 0.00517 µM [rising, full curve, poor fit]. In the case of `CC1(C)NC(=O)N(CC(O)COC2CCCCC2)C1=O` (configuration not stated), the cell number change was -18.3%. Also, the AC50 under setting [2] is 29.1 µM [rising, single point]. For `COc1ccc(CNC(=O)CN(c2cc(C)cc(C)c2)S(=O)(=O)c2c(C)[nH]c(=O)[nH]c2=O)cc1`, the cell number change was -21.3%. As to `CCOC(=O)c1ccccc1NC(=O)CSc1ccc(-c2ccccn2)nn1`, the cell number change was -10.4%. Besides, the AC50 under setting [2] was 20.6 µM [falling, single point].
